From patent US12351855B2, “Bioelectronic circuits, systems and methods for preparing and using them” (priority 2019, dated 2025)

Tests used:
[1] = Conductance of biotinylated ϕ29 polymerase wired into streptavidin-functionalized palladium junction; conditions: thiolated streptavidin on Pd electrodes, 50 mV bias
[2] = STM single-molecule conductance measurement between functionalized Pd probe and substrate; conditions: for highest conductance feature / maximum conductance: wild type streptavidin captured between electrodes functionalized with thio-biotin (20)

## mono-biotinylated polymerase: exonuclease-inactivated ϕ29 polymerase with N-terminal his-tag and one biotinylated Avitag (SEQ ID NO: 5) (MGSSHHHHHHSSGLVPRGSGLNDIFEAQKIEWHEGASS; biotinylated Avitag)
[1]
  highest conductance feature: about 0.7 nS

## Thiolated-streptavidin: streptavidin with an average of 2.5 thiols per tetramer, from ProteinMods
[2]; thiolated streptavidin (biotin bound) directly bonded to the metal electrodes
  maximum conductance: 0.56 nS
[2]; thiolated streptavidin attached to substrate, biotinylated probe (single biotin-mediated contact)
  high conductance state: ~7 nS

## Streptavidin: wild type (lacking surface thiols) streptavidin from Sigma Aldrich
[2]; listed as apo-streptavidin
  highest conductance feature / maximum conductance: ~7 nS
[2]; listed as streptavidin
  highest conductance feature / maximum conductance: 6.8 nS
[2]; listed as wild type streptavidin
  highest conductance feature / maximum conductance: ~7 nS
